{
  "source": "paper PMC7807754",
  "about": "“A novel protein encoded by circular SMO RNA is essential for Hedgehog signaling activation and glioblastoma tumorigenicity” (Genome Biology, 2021)",
  "target": "T1, SMO-193a.a.-3XFlag (human) (UniProt Q99835)",
  "T1 sequence": "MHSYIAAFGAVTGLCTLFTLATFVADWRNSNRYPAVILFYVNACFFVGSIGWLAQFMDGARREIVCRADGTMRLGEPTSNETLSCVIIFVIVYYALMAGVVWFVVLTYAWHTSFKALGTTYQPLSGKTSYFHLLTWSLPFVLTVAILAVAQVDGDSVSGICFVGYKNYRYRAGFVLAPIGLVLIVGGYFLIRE",
  "test": "co-IP; 373 GBM cells overexpressing SMO-193a.a.-3XFlag and HA-tagged full-length or truncated SMO; co-IP soft RIPA lysis buffer, protein A/G agarose, Western blotting",
  "note": "No constants are given. Whether binding was seen depends on the method and setting. Binding seen in cells or lysates may run through a third protein. Binding calls can cover weak binding; strength is not graded here. Sequences can lack the tags named with a protein.",
  "data": [
    {"substance": "N-HA (N terminal of SMO) (human) (domain or fragment)", "values": [
      {"measurement": "binding", "value": "binds"}
    ]},
    {"substance": "C-HA (C-terminal of SMO) (human) (domain or fragment)", "values": [
      {"measurement": "binding", "value": "no binding"}
    ]}
  ]
}
